{"source": "patent US20210040169A1", "molecular_target": "T1, mouse IL-10 receptor (IL-10R) (mouse) (UniProt Q61727)", "T1 sequence (looked up)": "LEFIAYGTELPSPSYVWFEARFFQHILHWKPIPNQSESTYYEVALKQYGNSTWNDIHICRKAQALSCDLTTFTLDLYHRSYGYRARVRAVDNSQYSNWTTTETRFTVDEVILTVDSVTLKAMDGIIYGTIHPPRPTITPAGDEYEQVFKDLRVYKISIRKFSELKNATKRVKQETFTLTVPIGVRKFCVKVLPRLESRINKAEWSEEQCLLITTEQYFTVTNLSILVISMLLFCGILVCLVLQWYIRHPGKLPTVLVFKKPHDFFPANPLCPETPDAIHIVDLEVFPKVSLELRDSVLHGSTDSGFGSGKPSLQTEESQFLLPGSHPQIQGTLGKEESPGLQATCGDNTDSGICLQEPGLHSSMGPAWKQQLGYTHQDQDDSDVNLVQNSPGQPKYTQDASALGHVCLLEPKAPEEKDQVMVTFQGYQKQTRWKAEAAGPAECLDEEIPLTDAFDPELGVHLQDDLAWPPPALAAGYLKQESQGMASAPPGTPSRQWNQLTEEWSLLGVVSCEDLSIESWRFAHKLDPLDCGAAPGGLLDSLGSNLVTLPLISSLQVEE", "test": "flow cytometry of mRNA-electroporated mouse NOD CD4 T cells, 48 h; loss of anti-IL-10R mAb staining", "note": "These are yes or no findings as the source states them, for the method shown. Some results given as binding are weak or reduced against the parent protein; the word gives no strength."}
{"substance": "mouse memIL-10 (membrane-anchored single-chain homodimeric IL-10, short linker) (from UniProt P18893 19-178; P18893 19-178) (ligand)", "values": [{"measurement": "binding", "value": "binds"}]}
